Data as given in PubChem BioAssay AID1671190 (National Center for Advancing Translational Sciences (NCATS), 2021).
Hit rate of the full screen: of about 580,000 compounds, about 6,100 (1.1%) were called active. Inconclusive means that the source gave no clear call. Such entries were picked first, then a sample of the others. Calls come from the whole dose curve; as a rule, active = well fitted inhibition curve with a large enough effect; inconclusive = small, poorly fitted or top-dose-only effect, or another doubt; inactive = no such curve, though single readings can be large or run the other way. Potencies of inconclusive entries are doubtful fits and often do not repeat.

The chains behind the UniProt entries cited, without tags or fusion partners.
UniProt P18054, whole entry, looked up: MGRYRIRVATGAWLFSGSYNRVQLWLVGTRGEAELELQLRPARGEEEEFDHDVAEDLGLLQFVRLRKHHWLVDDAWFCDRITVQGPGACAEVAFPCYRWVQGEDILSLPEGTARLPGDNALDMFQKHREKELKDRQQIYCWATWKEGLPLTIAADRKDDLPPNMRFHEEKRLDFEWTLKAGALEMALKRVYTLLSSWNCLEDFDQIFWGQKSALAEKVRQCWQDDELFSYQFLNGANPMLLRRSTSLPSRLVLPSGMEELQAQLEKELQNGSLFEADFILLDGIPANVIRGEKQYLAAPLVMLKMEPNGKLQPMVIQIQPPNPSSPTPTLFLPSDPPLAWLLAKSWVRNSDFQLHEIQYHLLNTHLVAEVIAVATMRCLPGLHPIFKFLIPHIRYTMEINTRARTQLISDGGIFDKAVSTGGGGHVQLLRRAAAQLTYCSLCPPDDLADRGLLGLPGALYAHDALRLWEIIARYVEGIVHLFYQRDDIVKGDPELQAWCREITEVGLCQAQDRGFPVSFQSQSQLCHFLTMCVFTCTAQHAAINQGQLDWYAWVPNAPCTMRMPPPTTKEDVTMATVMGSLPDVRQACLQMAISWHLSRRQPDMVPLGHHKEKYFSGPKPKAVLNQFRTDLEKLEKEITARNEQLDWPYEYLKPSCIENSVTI

target: Polyunsaturated fatty acid lipoxygenase ALOX12 (Homo sapiens) (UniProt P18054); test: Primary qHTS assay for inhibitors of human arachidonate 12S-lipoxygenase (ALOX12): Round 2; conditions: purified 12hLO, xylenol orange hydroperoxide absorbance; activity change, negative = inhibition: at 108 µM (top of the series) unless noted
In short: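 Hydroperoxide product was detected by ferrous iron/xylenol orange as the 573 to 405 nm absorbance ratio. Arachidonic acid at 40 uM (final) was turned over for 30 min at room temperature by 150 nM human 12hLO, pH 7.0 Hepes buffer, after 15 min compound preincubation.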
% is set by controls: 0 for no effect and ±100 for the full control effect; potency is the fitted concentration of half-maximal effect.

SMILES | Potency | activity change, negative = inhibition
Cc1ccc(NC(=O)Cn2c(-c3ccc4c(c3)OCO4)cn(-c3ccccc3)c2=O)cc1C | inactive | 
Cc1ccc(CN(C)C(=O)c2cc(Br)c(Br)s2)o1 | inconclusive: 79.4 µM [inhibitor, partial curve, poor fit] | 
O=C(Cn1cnc2cc([N+](=O)[O-])ccc2c1=O)Nc1ccc2c(c1)OCO2 | inconclusive: 39.8 µM [inhibitor, partial curve, poor fit] | 
Cc1[nH]c2ccccc2c1C(=O)CN1C(=O)C(=O)N(Cc2ccco2)C1=O | inactive | 
Cc1[nH]c2ccccc2c1N=Nc1ccccc1C(=O)O | inconclusive: 17.8 µM [inhibitor, partial curve] | 
CSCC(=O)NC(=O)NCc1ccco1 | inactive | 
O=C(COc1ccc2ccc(=O)oc2c1)NCCc1ccccc1 | inactive | 
COc1ccc2c(c1)C(C[C@H]1CN(C(=O)C3CC3)CC[C@H]1CC(=O)O)=NCC2 | inconclusive: 28.2 µM [inhibitor, full curve] | 
CCC1CN(C(=O)N2CCC(C(=O)NCc3ccc(OC)cc3OC)CC2)c2cc(C)ccc2O1 (configuration not stated) | inconclusive: 28.2 µM [inhibitor, partial curve, poor fit] | 
Cc1ccc(NC(=O)c2ccc(NCCCN3CCC(C)CC3)c([N+](=O)[O-])c2)c(C)c1 | inactive | 
Cc1cc2oc(=O)cc(-c3ccccc3)c2c(C)c1-c1ccc(O)cc1 | inconclusive: 50.1 µM [inhibitor, partial curve, poor fit] | 
CNC(=O)C1(N2CCC[C@H]2C(=O)N2CCC[C@@H]2COC)CCCCC1 | active: 22.4 µM | 
N#CCCn1cc(C(=O)Nc2ccc(C(=O)O)cc2)c(-c2ccc([N+](=O)[O-])cc2)n1 | inconclusive: 126 µM [inhibitor, partial curve, poor fit] | 
Fc1ccc(-c2cnc(COc3ccc(-c4nnco4)cc3)o2)cc1 | inactive | 
COc1ccccc1C(=O)NC(=S)Nc1ccc(N2CCCC2)cc1 | inconclusive: 7.94 µM [inhibitor, full curve, poor fit] | 
COc1cccc(C(=O)N(Cc2cc3ccc(C)cc3nc2N(C)C)C2CC2)c1OC | inconclusive: 112 µM [inhibitor, single point] | 
CNS(=O)(=O)c1ccc(NC(=O)c2ccccn2)cc1 | inactive | 
CC(OC(=O)c1ccc2ccccc2n1)C(=O)Nc1cc(Cl)cc(Cl)c1 (configuration not stated) | inconclusive: 0.282 µM [inhibitor, full curve, poor fit] | 
Cc1ccc(S(=O)(=O)NC(C(=O)Oc2ccc3c(C(F)(F)F)cc(=O)oc3c2)c2ccccc2)cc1 (configuration not stated) | active: 50.1 µM | 
CN1CCN(CN2C(=O)C(O)(CC(=O)c3ccc(Br)s3)c3ccccc32)CC1 (configuration not stated) | inconclusive: 100 µM [inhibitor, partial curve, poor fit] | 
Nc1ccc(OC(=O)Nc2ccc(O)cc2)cc1 | inconclusive: 89.1 µM [inhibitor, single point] | 
Cc1cc(C)c(OCCN2C(=O)NC(C)(C)C2=O)c(Cl)c1 | inactive | 
CN(Cc1ccccc1)Cc1cn([C@H]2CO[C@H]3[C@@H]2OC[C@@H]3NS(=O)(=O)c2cccs2)nn1 | inconclusive: 44.7 µM [inhibitor, partial curve, poor fit] | 

Part of the list above in order of formula weight, low to high:
SMILES | Potency | activity change, negative = inhibition
O=C(COc1ccc2ccc(=O)oc2c1)NCCc1ccccc1 | inactive | 
Fc1ccc(-c2cnc(COc3ccc(-c4nnco4)cc3)o2)cc1 | inactive | 
Cc1ccc(CN(C)C(=O)c2cc(Br)c(Br)s2)o1 | inconclusive: 79.4 µM [inhibitor, partial curve, poor fit] | 

Later entries

SMILES | Potency | activity change, negative = inhibition
OCCC1CN(Cc2ccc3cc(Cl)ccc3n2)CCN1Cc1ccsc1 (configuration not stated) | inconclusive: 20 µM [inhibitor, partial curve, poor fit] | 
CCn1c(SCC(=O)Nc2ccc(F)cc2)nnc1C1CC1 | inactive | 
C[C@H]1CN([C@@H](C)CO)C(=O)CCCn2cc(nn2)CO[C@@H]1CN(C)C(=O)c1ccncc1 | inconclusive: 44.7 µM [inhibitor, partial curve, poor fit] | 
O=C(NCc1cnn(-c2ccccc2)c1)C1CCN(S(=O)(=O)c2cccc(C(F)(F)F)c2)CC1 | inconclusive: 50.1 µM [inhibitor, partial curve, poor fit] | 
Cc1ccc2nc(N3C(=O)C(O)=C(C(=O)c4ccco4)C3c3ccc(C)o3)sc2c1 (configuration not stated) | inconclusive: 50.1 µM [inhibitor, partial curve, poor fit] | 
CCN1C(=O)C2(C(C(=O)c3ccc(C)o3)=C(O)C(=O)N2CCN2CCOCC2)c2ccccc21 (configuration not stated) | inconclusive: 28.2 µM [inhibitor, partial curve] | 
O=C(CSc1nc2ccccc2s1)N1CCCCC1 | inactive | 
Oc1ccccc1Oc1ncc(Br)c(Cl)n1 | active: 31.6 µM | 
CCCOc1ccc(C2C(C(=O)c3ccc(C)o3)=C(O)C(=O)N2CCCn2ccnc2)cc1 (configuration not stated) | inactive | 
O=C(c1ccc(Cl)cc1)N1CCC(n2cc(-c3ccc(OC(F)(F)F)cc3)[nH]c2=O)CC1 | inconclusive: 28.2 µM [inhibitor, full curve, poor fit] | 
COc1cc2[nH]c(=S)n(N(C(C)=O)C(C)=O)c(=O)c2cc1OC | inconclusive: 50.1 µM [inhibitor, partial curve, poor fit] | 
COc1ccc(/C(O)=C2/C(=O)C(=O)N(CCN(C)C)C2c2cccnc2)cc1C (configuration not stated) | inconclusive: 5.62 µM [inhibitor, full curve, poor fit] | 
CCOc1cc(C(=S)N2CCOCC2)ccc1OC(=O)c1ccccc1 | inconclusive: 39.8 µM [inhibitor, partial curve, poor fit] | 
COC(=O)c1ccccc1NC(=O)C1CC(=O)N(c2ccc(C)cc2)C1 (configuration not stated) | inconclusive: 44.7 µM [inhibitor, partial curve, poor fit] | 
COc1ccc(C(=O)/C=C/Nc2c(C)n(C)n(-c3ccccc3)c2=O)c(OC)c1 | inconclusive: 50.1 µM [inhibitor, partial curve, poor fit] | 
CCN1CCN(S(=O)(=O)c2cc(C(=O)O)ccc2Cl)CC1 | inconclusive: 5.62 µM [inhibitor, full curve, poor fit] | 
C=CCOc1cccc(C2NC(=O)c3ccccc3O2)c1 (configuration not stated) | inactive | 
NC(=O)CC(NC(=O)Cc1cccc2ccccc12)c1ccc(NCc2ccc(F)c(F)c2)c([N+](=O)[O-])c1 (configuration not stated) | inconclusive: 126 µM [inhibitor, single point] | 
O=C(NCCCNC(=O)c1ccco1)c1cccc(F)c1 | inconclusive: 141 µM [inhibitor, partial curve, poor fit] | 
S=C(Nc1cc(Cl)ccc1Cl)Nn1cnnc1 | inconclusive: 44.7 µM [inhibitor, partial curve, poor fit] | 
Cc1cccc(NC(=S)NNC(=O)c2ccco2)c1 | inactive | 
Cc1ccc(S(=O)(=O)N/N=C/c2ccccc2F)cc1[N+](=O)[O-] | inconclusive: 39.8 µM [inhibitor, partial curve, poor fit] | 
CSc1ccc(CCNC(=O)C2CCN(c3nc4ccccc4nc3C(F)(F)F)CC2)cc1 |  | inconclusive: -30.2% [inhibitor]

Retrieved one by one from the entries so far:
SMILES | Potency | activity change, negative = inhibition
OCCC1CN(Cc2ccc3cc(Cl)ccc3n2)CCN1Cc1ccsc1 (configuration not stated) | inconclusive: 20 µM [inhibitor, partial curve, poor fit] | 
CCCOc1ccc(C2C(C(=O)c3ccc(C)o3)=C(O)C(=O)N2CCCn2ccnc2)cc1 (configuration not stated) | inactive | 

Carrying on:

SMILES | Potency | activity change, negative = inhibition
O=C(NC(=S)NNC(=O)c1ccccc1O)c1cccs1 | inconclusive: 11.2 µM [inhibitor, full curve] | 
COc1ccc2c(Cl)c(C(=O)OCC(=O)Nc3ccccc3F)sc2c1Cl | inactive | 
O=C(c1ccnc(-c2nnc3ccc(N4CCOCC4)nn23)c1)N1CCCCC1 | inconclusive: 50.1 µM [inhibitor, partial curve, poor fit] | 
C=CC[C@@H](CC(=O)N(CCO)Cc1ccccc1)C(=O)N[C@H](COC(=O)[C@@H](CC=C)Cc1ccc(F)cc1)c1ccccc1 | inconclusive: 39.8 µM [inhibitor, partial curve, poor fit] | 
CCOC(=O)C1CCCN(S(=O)(=O)c2cc(OCC(N)=O)c(C)cc2Cl)C1 (configuration not stated) | inconclusive: 100 µM [inhibitor, single point] | 
CCc1ccc(Cn2nccc2NC(=O)c2nn(CC)c(=O)c3ccccc23)cc1 | inactive | 
COc1ccc(CCC(=O)NCCOc2ccc(Cl)cc2)cc1 | inconclusive: 63.1 µM [inhibitor, partial curve, poor fit] | 
CC12CCC(c3c(C(=O)O)nn(-c4ccccc4)c31)C2(C)C (configuration not stated) | inconclusive: 5.62 µM [inhibitor, full curve, poor fit] | 
CC(C)CCN1CC[C@H](c2nc3ccccc3[nH]2)C1 | inactive | 
CCN(CC)S(=O)(=O)c1ccc(C(=O)Nc2nnc(NC(=S)Nc3ccccc3)s2)cc1 | inconclusive: 25.1 µM [inhibitor, partial curve] | 
CCCC(C)(C)NC(=O)Cc1ccc(OC)c(OC)c1 | inconclusive: 39.8 µM [inhibitor, partial curve] | 
O=C(NCCO)c1ccc2c3n(nc2c1)-c1ccccc1CO3 | inactive | 
CCCCN(S(=O)(=O)c1ccccc1)S(=O)(=O)c1ccccc1 | inactive | 
OCCCNc1ncnc2sc3c(c12)CCN(Cc1ccccc1)C3 | inactive | 
CCc1ccc(-c2nc3ccc(Br)cc3c(C(=O)O)c2C)s1 | inconclusive: 44.7 µM [inhibitor, partial curve, poor fit] | 
CCc1cccc(C)c1NC(=O)c1cccc(N(C)C)c1 | active: 22.4 µM | 
C=CCNC(=O)/C=C/c1cnc2ccccc2n1 | inactive | 
CCN=C1S/C(=C/c2ccc(-c3ccc(Cl)cc3C(=O)O)o2)C(=O)N1CC | inconclusive: 35.5 µM [inhibitor, single point] | 
O=C(NC(=S)Nc1cc(C(F)(F)F)ccc1Cl)c1ccccc1 | inconclusive: 50.1 µM [inhibitor, partial curve, poor fit] | 
O=C(Nc1nnc(-c2ccco2)o1)C1CCCCC1 | inactive | 
N#CC1=C(N)NC(=S)C(C(N)=O)C1c1ccc([N+](=O)[O-])cc1 (configuration not stated) | active: 44.7 µM | 
